The other results are listed elsewhere or left out.
Legend:
Assay in all cases: log2 fold change, soluble protein after heating vs DMSO (PISA); higher = thermal stabilisation; K562 cells, 10 uM, 30 min; active = over 0.2 and 3.5 SD of the protein, either way, in both replicates (recomputed)
[1] = compound: COC1=CC=C(C=C1)CN2C=CC3=C2C=C(C=C3)C(=O)NO
Procedure, shortened: (§1)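 Soluble protein was quantified by TMTpro 16plex LC-MS/MS after channel sums were equalised. It was obtained as the supernatant after 21,000xg for 90 min from pooled aliquots of K562 cells (2×10^6 cells/mL, 10 μM compound, 30 min) heated for 3 min across 48°C-58°C and extracted in PBS with 0.5% NP-40 at 4°C. Thermal stability values are relative to control samples and come from duplicates. They are given as log2 fold changes.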

The chains behind the UniProt entries cited, without tags or fusion partners. Where a name states a change or a piece, a line headed by the entry shows the natural chain unless it says otherwise.
UniProt Q9Y6Y0: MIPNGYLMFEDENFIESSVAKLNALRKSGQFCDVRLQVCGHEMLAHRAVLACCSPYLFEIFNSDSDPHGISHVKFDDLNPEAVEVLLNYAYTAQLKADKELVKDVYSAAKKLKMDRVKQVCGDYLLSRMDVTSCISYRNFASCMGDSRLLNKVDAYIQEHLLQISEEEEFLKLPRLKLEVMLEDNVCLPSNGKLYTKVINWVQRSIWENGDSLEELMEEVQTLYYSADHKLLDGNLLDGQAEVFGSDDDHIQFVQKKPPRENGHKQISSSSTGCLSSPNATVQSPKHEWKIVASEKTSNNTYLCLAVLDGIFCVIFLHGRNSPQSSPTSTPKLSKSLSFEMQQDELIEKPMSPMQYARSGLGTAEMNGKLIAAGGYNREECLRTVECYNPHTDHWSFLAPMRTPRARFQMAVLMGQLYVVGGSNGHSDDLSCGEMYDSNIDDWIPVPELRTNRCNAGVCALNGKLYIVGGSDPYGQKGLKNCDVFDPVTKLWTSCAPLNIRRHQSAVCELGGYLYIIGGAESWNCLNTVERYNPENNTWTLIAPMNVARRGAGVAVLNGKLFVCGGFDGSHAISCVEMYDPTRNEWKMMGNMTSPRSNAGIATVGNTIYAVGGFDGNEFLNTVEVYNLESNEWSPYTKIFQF
UniProt Q12840: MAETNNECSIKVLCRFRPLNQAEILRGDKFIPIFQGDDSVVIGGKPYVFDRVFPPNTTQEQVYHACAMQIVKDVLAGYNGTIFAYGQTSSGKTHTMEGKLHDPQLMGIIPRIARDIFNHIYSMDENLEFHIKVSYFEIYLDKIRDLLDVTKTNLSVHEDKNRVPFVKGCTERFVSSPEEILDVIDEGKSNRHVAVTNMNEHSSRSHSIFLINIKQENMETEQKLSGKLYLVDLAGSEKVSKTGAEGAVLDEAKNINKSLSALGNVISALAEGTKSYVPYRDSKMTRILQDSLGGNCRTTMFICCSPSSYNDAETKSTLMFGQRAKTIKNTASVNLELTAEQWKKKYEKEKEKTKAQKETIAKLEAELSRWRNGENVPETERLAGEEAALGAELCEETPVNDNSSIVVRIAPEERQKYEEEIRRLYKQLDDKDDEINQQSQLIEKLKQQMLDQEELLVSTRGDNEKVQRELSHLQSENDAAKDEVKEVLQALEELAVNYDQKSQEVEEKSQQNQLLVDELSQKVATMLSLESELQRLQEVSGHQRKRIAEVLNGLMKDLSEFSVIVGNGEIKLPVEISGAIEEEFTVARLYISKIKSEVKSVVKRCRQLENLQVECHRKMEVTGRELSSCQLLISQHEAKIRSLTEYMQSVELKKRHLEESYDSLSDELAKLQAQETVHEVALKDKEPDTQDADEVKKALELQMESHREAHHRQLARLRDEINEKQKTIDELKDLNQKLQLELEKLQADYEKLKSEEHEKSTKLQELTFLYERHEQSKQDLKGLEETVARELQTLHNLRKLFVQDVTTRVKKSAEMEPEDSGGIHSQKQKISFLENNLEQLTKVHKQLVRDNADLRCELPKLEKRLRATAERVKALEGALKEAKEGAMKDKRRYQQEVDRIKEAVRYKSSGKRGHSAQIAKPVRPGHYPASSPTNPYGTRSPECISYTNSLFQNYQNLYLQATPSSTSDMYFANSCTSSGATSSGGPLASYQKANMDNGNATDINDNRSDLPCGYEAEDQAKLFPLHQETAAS
UniProt Q8N371: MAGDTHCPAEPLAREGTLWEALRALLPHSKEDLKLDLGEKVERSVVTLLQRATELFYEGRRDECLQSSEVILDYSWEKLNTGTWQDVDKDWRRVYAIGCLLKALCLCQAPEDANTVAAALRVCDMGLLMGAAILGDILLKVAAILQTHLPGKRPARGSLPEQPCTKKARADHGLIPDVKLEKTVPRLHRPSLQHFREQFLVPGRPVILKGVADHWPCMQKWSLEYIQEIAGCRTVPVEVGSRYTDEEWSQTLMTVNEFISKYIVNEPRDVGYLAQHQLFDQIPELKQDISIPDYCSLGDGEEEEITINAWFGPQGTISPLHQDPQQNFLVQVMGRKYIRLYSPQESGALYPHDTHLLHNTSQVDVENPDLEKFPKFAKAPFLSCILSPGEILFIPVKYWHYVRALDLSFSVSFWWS
UniProt Q96AT1: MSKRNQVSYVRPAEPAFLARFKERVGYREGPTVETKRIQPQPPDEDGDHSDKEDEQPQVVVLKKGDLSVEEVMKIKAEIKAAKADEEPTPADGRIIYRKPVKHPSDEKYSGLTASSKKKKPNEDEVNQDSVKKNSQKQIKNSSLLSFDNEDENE
UniProt Q8IY47: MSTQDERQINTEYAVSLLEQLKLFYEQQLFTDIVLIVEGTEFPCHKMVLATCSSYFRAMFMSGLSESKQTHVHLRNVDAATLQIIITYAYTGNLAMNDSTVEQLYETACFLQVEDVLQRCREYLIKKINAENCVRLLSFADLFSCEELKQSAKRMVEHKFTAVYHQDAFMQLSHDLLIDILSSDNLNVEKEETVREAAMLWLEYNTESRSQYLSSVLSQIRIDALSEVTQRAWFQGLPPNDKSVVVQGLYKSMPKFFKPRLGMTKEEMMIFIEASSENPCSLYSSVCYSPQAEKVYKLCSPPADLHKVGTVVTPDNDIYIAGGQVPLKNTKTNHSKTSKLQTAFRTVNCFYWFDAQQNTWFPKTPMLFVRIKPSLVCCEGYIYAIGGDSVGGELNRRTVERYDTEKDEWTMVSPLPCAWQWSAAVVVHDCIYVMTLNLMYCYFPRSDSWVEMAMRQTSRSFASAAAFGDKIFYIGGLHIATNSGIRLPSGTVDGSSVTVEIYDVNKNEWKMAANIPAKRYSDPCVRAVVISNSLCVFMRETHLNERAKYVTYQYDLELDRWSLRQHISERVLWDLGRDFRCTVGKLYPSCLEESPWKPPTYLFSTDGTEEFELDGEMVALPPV
UniProt O75449: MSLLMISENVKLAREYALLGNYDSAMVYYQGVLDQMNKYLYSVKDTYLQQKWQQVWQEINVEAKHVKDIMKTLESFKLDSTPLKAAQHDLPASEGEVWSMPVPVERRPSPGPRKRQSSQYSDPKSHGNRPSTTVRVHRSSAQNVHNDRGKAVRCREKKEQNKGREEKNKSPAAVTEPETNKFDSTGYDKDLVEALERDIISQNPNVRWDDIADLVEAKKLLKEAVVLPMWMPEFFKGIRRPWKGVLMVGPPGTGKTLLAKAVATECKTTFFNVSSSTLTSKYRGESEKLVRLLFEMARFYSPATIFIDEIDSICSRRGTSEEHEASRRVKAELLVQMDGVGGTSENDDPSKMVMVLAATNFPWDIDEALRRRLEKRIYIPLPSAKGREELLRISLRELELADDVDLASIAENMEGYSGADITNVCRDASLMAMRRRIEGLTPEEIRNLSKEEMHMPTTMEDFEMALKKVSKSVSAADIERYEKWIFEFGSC
UniProt Q15652: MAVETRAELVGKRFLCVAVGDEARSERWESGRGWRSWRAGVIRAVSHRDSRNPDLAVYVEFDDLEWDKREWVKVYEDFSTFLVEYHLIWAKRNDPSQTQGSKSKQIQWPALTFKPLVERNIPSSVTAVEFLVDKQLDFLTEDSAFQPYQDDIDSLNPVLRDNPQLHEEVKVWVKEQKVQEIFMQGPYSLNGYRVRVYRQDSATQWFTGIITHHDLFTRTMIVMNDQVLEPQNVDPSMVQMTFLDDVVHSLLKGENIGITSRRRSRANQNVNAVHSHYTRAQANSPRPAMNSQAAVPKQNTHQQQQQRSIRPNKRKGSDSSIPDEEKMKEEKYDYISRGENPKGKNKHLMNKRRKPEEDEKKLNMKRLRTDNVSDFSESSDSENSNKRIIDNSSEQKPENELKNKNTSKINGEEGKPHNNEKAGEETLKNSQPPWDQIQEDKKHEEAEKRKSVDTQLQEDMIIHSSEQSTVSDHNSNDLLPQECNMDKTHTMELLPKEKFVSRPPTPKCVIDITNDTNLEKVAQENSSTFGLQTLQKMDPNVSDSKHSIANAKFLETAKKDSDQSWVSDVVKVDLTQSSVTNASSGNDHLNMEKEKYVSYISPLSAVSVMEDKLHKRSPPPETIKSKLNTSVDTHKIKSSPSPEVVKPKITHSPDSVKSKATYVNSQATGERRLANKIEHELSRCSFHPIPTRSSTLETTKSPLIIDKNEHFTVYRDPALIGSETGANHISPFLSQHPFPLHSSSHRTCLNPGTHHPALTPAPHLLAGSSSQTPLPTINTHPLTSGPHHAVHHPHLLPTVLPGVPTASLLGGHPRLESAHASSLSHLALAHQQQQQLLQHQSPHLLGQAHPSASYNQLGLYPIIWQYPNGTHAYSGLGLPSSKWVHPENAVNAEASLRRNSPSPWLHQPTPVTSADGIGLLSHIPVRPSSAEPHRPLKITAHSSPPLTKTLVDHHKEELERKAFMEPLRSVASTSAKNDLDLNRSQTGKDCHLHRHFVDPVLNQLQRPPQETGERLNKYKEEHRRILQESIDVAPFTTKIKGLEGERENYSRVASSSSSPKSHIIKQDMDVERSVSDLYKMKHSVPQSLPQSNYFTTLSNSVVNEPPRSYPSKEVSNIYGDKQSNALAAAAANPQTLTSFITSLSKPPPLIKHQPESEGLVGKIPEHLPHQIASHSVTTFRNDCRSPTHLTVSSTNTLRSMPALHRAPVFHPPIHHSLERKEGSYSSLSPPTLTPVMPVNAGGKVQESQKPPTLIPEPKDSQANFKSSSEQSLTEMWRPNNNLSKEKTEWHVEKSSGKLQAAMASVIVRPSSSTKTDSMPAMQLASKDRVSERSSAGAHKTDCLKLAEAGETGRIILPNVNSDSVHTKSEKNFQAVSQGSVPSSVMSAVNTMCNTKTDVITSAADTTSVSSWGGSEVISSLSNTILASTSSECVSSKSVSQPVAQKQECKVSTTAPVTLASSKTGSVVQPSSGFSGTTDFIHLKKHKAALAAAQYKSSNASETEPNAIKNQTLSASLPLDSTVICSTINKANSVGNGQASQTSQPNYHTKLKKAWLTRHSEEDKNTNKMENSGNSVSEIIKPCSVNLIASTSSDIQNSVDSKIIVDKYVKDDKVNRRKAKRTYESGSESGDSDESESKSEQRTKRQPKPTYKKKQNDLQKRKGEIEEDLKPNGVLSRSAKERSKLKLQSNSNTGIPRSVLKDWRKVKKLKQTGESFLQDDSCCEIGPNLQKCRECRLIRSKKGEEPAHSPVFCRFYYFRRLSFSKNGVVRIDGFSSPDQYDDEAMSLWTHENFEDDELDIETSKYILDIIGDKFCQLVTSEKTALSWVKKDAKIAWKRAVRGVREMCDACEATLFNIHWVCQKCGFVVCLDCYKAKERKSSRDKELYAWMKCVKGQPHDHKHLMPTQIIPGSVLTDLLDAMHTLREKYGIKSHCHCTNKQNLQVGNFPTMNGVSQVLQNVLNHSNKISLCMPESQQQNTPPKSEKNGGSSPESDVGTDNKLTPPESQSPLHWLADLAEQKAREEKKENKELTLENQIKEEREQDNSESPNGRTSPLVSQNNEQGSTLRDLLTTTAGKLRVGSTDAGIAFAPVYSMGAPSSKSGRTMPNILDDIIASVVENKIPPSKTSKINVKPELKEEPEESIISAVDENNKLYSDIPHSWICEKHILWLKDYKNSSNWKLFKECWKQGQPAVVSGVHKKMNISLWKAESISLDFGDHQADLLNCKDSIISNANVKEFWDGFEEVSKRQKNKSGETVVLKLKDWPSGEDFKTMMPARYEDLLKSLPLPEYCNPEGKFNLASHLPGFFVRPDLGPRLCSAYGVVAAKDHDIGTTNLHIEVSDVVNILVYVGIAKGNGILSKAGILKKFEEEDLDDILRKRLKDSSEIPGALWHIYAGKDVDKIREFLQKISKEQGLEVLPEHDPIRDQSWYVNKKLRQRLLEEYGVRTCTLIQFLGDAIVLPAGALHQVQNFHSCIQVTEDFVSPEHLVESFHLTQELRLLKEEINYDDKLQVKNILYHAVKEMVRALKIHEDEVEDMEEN
UniProt Q07866: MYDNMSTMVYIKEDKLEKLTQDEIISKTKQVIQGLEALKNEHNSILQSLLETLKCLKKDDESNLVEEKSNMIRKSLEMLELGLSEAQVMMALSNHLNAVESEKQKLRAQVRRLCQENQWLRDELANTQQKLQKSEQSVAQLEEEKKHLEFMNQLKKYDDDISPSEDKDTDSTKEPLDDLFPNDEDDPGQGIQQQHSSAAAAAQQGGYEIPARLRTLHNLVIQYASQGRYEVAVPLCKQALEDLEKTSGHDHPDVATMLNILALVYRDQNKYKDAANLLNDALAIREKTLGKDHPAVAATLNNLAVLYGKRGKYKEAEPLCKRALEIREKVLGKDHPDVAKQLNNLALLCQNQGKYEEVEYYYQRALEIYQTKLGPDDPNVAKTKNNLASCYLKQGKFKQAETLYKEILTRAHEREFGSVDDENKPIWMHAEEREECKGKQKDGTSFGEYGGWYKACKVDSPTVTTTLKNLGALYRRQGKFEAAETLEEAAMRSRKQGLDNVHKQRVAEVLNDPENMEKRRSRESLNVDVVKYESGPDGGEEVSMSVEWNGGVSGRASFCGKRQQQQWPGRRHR

filanesib = compound: CON(C)C(=O)N1N=C(c2cc(F)ccc2F)S[C@@]1(CCCN)c1ccccc1 [filanesib]
Procedure, shortened: as §1

zotarolimus = compound: CO[C@H]1C[C@@H]2CC[C@@H](C)[C@@](O)(O2)C(=O)C(=O)N2CCCC[C@H]2C(=O)O[C@H]([C@H](C)C[C@@H]2CC[C@H](n3cnnn3)[C@H](OC)C2)CC(=O)[C@H](C)/C=C(\C)[C@@H](O)[C@@H](OC)C(=O)[C@H](C)C[C@H](C)/C=C/C=C/C=C/1C [zotarolimus]
Procedure, shortened: as §1

idasanutlin = compound: COc1cc(C(=O)O)ccc1NC(=O)[C@@H]1N[C@@H](CC(C)(C)C)[C@](C#N)(c2ccc(Cl)cc2F)[C@H]1c1cccc(Cl)c1F [idasanutlin]
Procedure, shortened: as §1

alisertib = compound: COc1cc(Nc2ncc3c(n2)-c2ccc(Cl)cc2C(c2c(F)cccc2OC)=NC3)ccc1C(=O)O [alisertib]
Procedure, shortened: as §1

[2] = compound: COc1cc2nc(-c3cc(F)ccc3O)nc(N[C@@H]3CNC[C@H]3C(C)(C)O)c2cc1OC
Procedure, shortened: as §1

gefitinib = compound: COc1cc2ncnc(Nc3ccc(F)c(Cl)c3)c2cc1OCCCN1CCOCC1 [gefitinib]
Procedure, shortened: as §1

[3] = compound: COc1cccc2cc(-c3nc([C@H]4CC[C@H](C(=O)O)CC4)n4ncnc(N)c34)[nH]c12
Procedure, shortened: as §1

lapatinib = compound: CS(=O)(=O)CCNCc1ccc(-c2ccc3ncnc(Nc4ccc(OCc5cccc(F)c5)c(Cl)c4)c3c2)o1 [lapatinib]
Procedure, shortened: as §1

pictilisib = compound: CS(=O)(=O)N1CCN(Cc2cc3nc(-c4cccc5[nH]ncc45)nc(N4CCOCC4)c3s2)CC1 [pictilisib]
Procedure, shortened: as §1

[4] = compound: CS(=O)(=O)c1ccc(-c2cnc(N)c(C(=O)Nc3ccccc3)n2)cc1
Procedure, shortened: as §1

crizotinib = compound: C[C@@H](Oc1cc(-c2cnn(C3CCNCC3)c2)cnc1N)c1c(Cl)ccc(F)c1Cl [crizotinib]
Procedure, shortened: as §1

[5] = compound: C[C@@H]1COCCN1C2=NC(=NC(=C2)C3(CC3)S(=O)(=O)C)C4=C5C=CNC5=CC=C4
Procedure, shortened: as §1

[6] = compound: C[C@H](C1=CC=C(C=C1)C(=O)NC2=C3C=CNC3=NC=C2)N
Procedure, shortened: as §1

duvelisib = compound: C[C@H](Nc1ncnc2nc[nH]c12)c1cc2cccc(Cl)c2c(=O)n1-c1ccccc1 [duvelisib]
Procedure, shortened: as §1

gandotinib = compound: Cc1cc(Nc2cc(CN3CCOCC3)c3nc(C)c(Cc4ccc(Cl)cc4F)n3n2)n[nH]1 [gandotinib]
Procedure, shortened: as §1

tozasertib = compound: Cc1cc(Nc2cc(N3CCN(C)CC3)nc(Sc3ccc(NC(=O)C4CC4)cc3)n2)n[nH]1 [tozasertib]
Procedure, shortened: as §1

[7] = compound: Cc1cc(SCc2sc(-c3ccc(C(F)(F)F)cc3)nc2C)ccc1OCC(=O)O
Procedure, shortened: as §1

doramapimod = compound: Cc1ccc(-n2nc(C(C)(C)C)cc2NC(=O)Nc2ccc(OCCN3CCOCC3)c3ccccc23)cc1 [doramapimod]
Procedure, shortened: as §1

ispinesib = compound: Cc1ccc(C(=O)N(CCCN)[C@@H](c2nc3cc(Cl)ccc3c(=O)n2Cc2ccccc2)C(C)C)cc1 [ispinesib]
Procedure, shortened: as §1

Measured: log2 fold change

KLC4 isoform 3 (UniProt Q9NSK0)
inactive: [1] 0.186 | filanesib -0.013 | zotarolimus 0.043 | idasanutlin -0.022 | alisertib -0.072 | [2] -0.113 | gefitinib 0.058 | [3] -0.068 | lapatinib 0.036 | pictilisib -0.017 | [4] 0.064 | crizotinib -0.032 | [5] 0.01 | [6] -0.014 | duvelisib 0.043 | gandotinib -0.015 | tozasertib -0.009 | [7] -0.009 | doramapimod -0.019 | ispinesib 0.039

IVNS1ABP (UniProt Q9Y6Y0)
inactive: [1] 0.089 | filanesib 0.063 | zotarolimus 0.067 | idasanutlin -0.08 | alisertib 0.038 | [2] 0.028 | gefitinib -0.056 | [3] -0.062 | lapatinib 0.069 | pictilisib -0.059 | [4] 0.054 | crizotinib 0.416 | [5] -0.125 | [6] 0.192 | duvelisib 0.004 | gandotinib -0.055 | tozasertib 0.011 | [7] 0.055 | doramapimod -0.001 | ispinesib -0.048

KIF2A isoform 4 (UniProt O00139)
inactive: [1] -0.031 | filanesib 0.202 | zotarolimus 0.025 | idasanutlin 0.05 | alisertib -0.066 | [2] 0.038 | gefitinib 0.002 | [3] -0.066 | lapatinib 0.039 | pictilisib -0.004 | [4] -0.057 | crizotinib -0.066 | [5] -0.138 | [6] 0.105 | duvelisib -0.04 | gandotinib 0.006 | tozasertib -0.046 | [7] 0.068 | doramapimod 0.139 | ispinesib -0.177

KDM5C (UniProt P41229)
inactive: [1] -0.144 | filanesib -0.032 | zotarolimus 0.068 | idasanutlin -0.078 | alisertib 0.234 | [2] -0.04 | gefitinib 0.074 | [3] -0.229 | lapatinib 0.015 | pictilisib 0.187 | [4] 0.043 | crizotinib 0.009 | [5] 0.068 | [6] 0.03 | duvelisib 0.03 | gandotinib 0.109 | tozasertib 0.146 | [7] 0.03 | doramapimod 0.067 | ispinesib 0.022

Copied from the listing (3 entries):
IVNS1ABP (UniProt Q9Y6Y0)
inactive: [1] 0.089 | filanesib 0.063 | zotarolimus 0.067 | idasanutlin -0.08 | alisertib 0.038 | [2] 0.028 | gefitinib -0.056 | [3] -0.062 | lapatinib 0.069 | pictilisib -0.059 | [4] 0.054 | crizotinib 0.416 | [5] -0.125 | [6] 0.192 | duvelisib 0.004 | gandotinib -0.055 | tozasertib 0.011 | [7] 0.055 | doramapimod -0.001 | ispinesib -0.048

KIF2A isoform 4 (UniProt O00139)
inactive: [1] -0.031 | filanesib 0.202 | zotarolimus 0.025 | idasanutlin 0.05 | alisertib -0.066 | [2] 0.038 | gefitinib 0.002 | [3] -0.066 | lapatinib 0.039 | pictilisib -0.004 | [4] -0.057 | crizotinib -0.066 | [5] -0.138 | [6] 0.105 | duvelisib -0.04 | gandotinib 0.006 | tozasertib -0.046 | [7] 0.068 | doramapimod 0.139 | ispinesib -0.177

KDM5C (UniProt P41229)
inactive: [1] -0.144 | filanesib -0.032 | zotarolimus 0.068 | idasanutlin -0.078 | alisertib 0.234 | [2] -0.04 | gefitinib 0.074 | [3] -0.229 | lapatinib 0.015 | pictilisib 0.187 | [4] 0.043 | crizotinib 0.009 | [5] 0.068 | [6] 0.03 | duvelisib 0.03 | gandotinib 0.109 | tozasertib 0.146 | [7] 0.03 | doramapimod 0.067 | ispinesib 0.022

Going on with the list.

KIF5A (UniProt Q12840)
inactive: [1] -0.049 | filanesib 0.028 | zotarolimus -0.015 | idasanutlin -0.013 | alisertib -0.031 | [2] 0.043 | gefitinib 0.009 | [3] 0.012 | lapatinib -0.043 | pictilisib -0.034 | [4] 0.026 | crizotinib -0.013 | [5] 0.049 | [6] 0.023 | duvelisib 0.051 | gandotinib -0.093 | tozasertib -0.011 | [7] 0 | doramapimod -0.024 | ispinesib 0.027

JAGN1 (UniProt Q8N5M9)
inactive: [1] -0.09 | filanesib -0.012 | zotarolimus 0.015 | idasanutlin -0.062 | alisertib -0.031 | [2] -0.091 | gefitinib -0.034 | [3] 0.085 | lapatinib -0.045 | pictilisib 0.049 | [4] 0 | crizotinib 0.079 | [5] 0.117 | [6] -0.079 | duvelisib 0.08 | gandotinib -0.05 | tozasertib 0.011 | [7] 0.011 | doramapimod -0.031 | ispinesib 0.182

KDM8 isoform 3 (UniProt Q8N371)
inactive: [1] 0.083 | filanesib -0.025 | zotarolimus 0.025 | idasanutlin -0.183 | alisertib -0.041 | [2] 0.055 | gefitinib 0.019 | [3] 0.082 | lapatinib 0.019 | pictilisib 0.061 | [4] 0.016 | crizotinib 0.053 | [5] 0.114 | [6] -0.089 | duvelisib 0.026 | gandotinib -0.094 | tozasertib 0.051 | [7] 0.034 | doramapimod -0.069 | ispinesib 0.043

KIAA1143 (UniProt Q96AT1)
inactive: [1] -0.052 | filanesib 0.088 | zotarolimus -0.074 | idasanutlin 0.047 | alisertib -0.103 | [2] 0.056 | gefitinib 0.003 | [3] 0.095 | lapatinib -0.038 | pictilisib -0.052 | [4] 0.079 | crizotinib 0.082 | [5] -0.105 | [6] 0.075 | duvelisib 0.04 | gandotinib 0.118 | tozasertib -0.05 | [7] -0.081 | doramapimod -0.034 | ispinesib 0.008

KIAA1522 isoform 2 (UniProt Q9P206)
inactive: [1] 0.085 | filanesib 0.399 | zotarolimus 0.025 | idasanutlin 0.655 | alisertib -0.099 | [2] -0.08 | gefitinib 0.066 | [3] -0.092 | lapatinib 0.037 | pictilisib -0.017 | [4] 0.017 | crizotinib -0.097 | [5] -0.278 | [6] -0.125 | duvelisib -0.084 | gandotinib 0.01 | tozasertib -0.016 | [7] 0.061 | doramapimod 0.104 | ispinesib -0.196

KHSRP (UniProt Q92945)
inactive: [1] -0.055 | filanesib -0.022 | zotarolimus -0.033 | idasanutlin -0.011 | alisertib -0.049 | [2] 0.03 | gefitinib 0.014 | [3] 0.066 | lapatinib -0.042 | pictilisib 0.009 | [4] -0.015 | crizotinib 0.011 | [5] 0.016 | [6] -0.018 | duvelisib 0.009 | gandotinib -0.021 | tozasertib -0.029 | [7] -0.028 | doramapimod -0.006 | ispinesib -0.016

KDSR (UniProt Q06136)
inactive: [1] 0.014 | filanesib -0.044 | zotarolimus -0.05 | idasanutlin -0.041 | alisertib -0.038 | [2] 0.007 | gefitinib -0.011 | [3] 0.029 | lapatinib 0.023 | pictilisib -0.045 | [4] -0.051 | crizotinib 0.008 | [5] 0.015 | [6] -0.118 | duvelisib 0.021 | gandotinib -0.073 | tozasertib 0.003 | [7] -0.006 | doramapimod -0.052 | ispinesib 0.016

KBTBD2 (UniProt Q8IY47)
inactive: [1] 0.006 | filanesib -0.072 | zotarolimus -0.012 | idasanutlin -0.077 | alisertib -0.12 | [2] 0.048 | gefitinib 0.005 | [3] 0.102 | lapatinib 0.02 | pictilisib 0.023 | [4] 0.001 | crizotinib 0 | [5] 0.032 | [6] -0.08 | duvelisib 0.005 | gandotinib -0.085 | tozasertib -0.075 | [7] 0.029 | doramapimod -0.023 | ispinesib 0.066

KMT2D isoform 3 (UniProt O14686)
inactive: [1] -0.129 | filanesib 0.131 | zotarolimus 0.034 | idasanutlin 0.135 | alisertib -0.111 | [2] 0.096 | gefitinib -0.003 | [3] 0.057 | lapatinib -0.016 | pictilisib 0.024 | [4] 0.093 | crizotinib 0 | [5] 0.06 | [6] 0.064 | duvelisib -0.025 | gandotinib 0.095 | tozasertib 0.099 | [7] 0.063 | doramapimod 0.048 | ispinesib 0.06

KATNA1 (UniProt O75449)
inactive: [1] 0.007 | filanesib 0.024 | zotarolimus -0.011 | idasanutlin 0 | alisertib -0.078 | [2] -0.028 | gefitinib 0.002 | [3] -0.073 | lapatinib 0.042 | pictilisib 0.009 | [4] -0.029 | crizotinib -0.08 | [5] 0.016 | [6] 0.054 | duvelisib -0.03 | gandotinib -0.004 | tozasertib 0.022 | [7] 0.056 | doramapimod 0.071 | ispinesib -0.069

JMJD1C (UniProt Q15652)
inactive: [1] 0.086 | filanesib -0.05 | zotarolimus -0.016 | idasanutlin 0.063 | alisertib -0.01 | [2] -0.004 | gefitinib 0.072 | [3] -0.122 | lapatinib -0.007 | pictilisib 0.052 | [4] -0.053 | crizotinib -0.016 | [5] 0.052 | [6] 0.037 | duvelisib -0.01 | gandotinib -0.042 | tozasertib 0.007 | [7] 0.018 | doramapimod 0.02 | ispinesib 0.016

KLC1 isoform 6 (UniProt Q07866)
inactive: [1] -0.007 | filanesib -0.053 | zotarolimus 0.005 | idasanutlin -0.046 | alisertib -0.055 | [2] -0.03 | gefitinib -0.015 | [3] 0.001 | lapatinib 0 | pictilisib 0.052 | [4] 0.015 | crizotinib -0.052 | [5] 0.07 | [6] -0.013 | duvelisib 0.057 | gandotinib -0.084 | tozasertib -0.007 | [7] -0.005 | doramapimod 0.013 | ispinesib 0.01

Reference: the supplement of paper PMC10849652
